Measured values from patent US20190032056.
For some of these results: Negatives hold for the conditions tested. For some of these results: At least one result comes from cells or an extract, where the contact may be indirect. For some of these results: The exact form of at least one protein or probe is not confirmed. For some of these results: Weaker means in comparison with the reference protein, sequence or condition of that experiment.

Sequences of proteins named here, by UniProt entry; tags and fusion partners are left off. Residues count along the entry.
UniProt P00746, 26-253: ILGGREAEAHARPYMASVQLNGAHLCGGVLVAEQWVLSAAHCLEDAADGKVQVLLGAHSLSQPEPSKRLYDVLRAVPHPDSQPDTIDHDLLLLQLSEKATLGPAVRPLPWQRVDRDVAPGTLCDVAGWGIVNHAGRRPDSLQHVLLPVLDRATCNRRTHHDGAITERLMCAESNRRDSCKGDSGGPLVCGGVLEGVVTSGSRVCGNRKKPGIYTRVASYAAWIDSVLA

Experiments:
[1] = target: complement Factor D (fD) in C1q-depleted human serum (Homo sapiens) (UniProt P00746); test: inhibition of the protein; details: protein in an extract, protein details: endogenous fD, about 9.6 nM in 10% serum
[2] = target: complement Factor D (fD) (Homo sapiens) (UniProt P00746); test: inhibition of the protein; details: 2'-F G, 3' idT, dose not given here
[3] = tested on: human growth factor (non-specific target on beads) (Homo sapiens); test: flow cytometry; details: 2'-F G; 2'-OMe A,C,U; 100 nM aptamer, 37 C; protein details: bead-immobilized
[4] = 2'-F G, 2'-OMe A,C,U, 5' C6NH2, 3' idT, hemolysis, 4 bp stem 2 not tolerated, variant of Aptamer 15
[5] = 2'-F G, 2'-OMe A,C,U, 5' C6NH2, 3' idT, hemolysis, loop 2 shortened without spacer not tolerated, variant of Aptamer 15
[6] = 2'-F G, 2'-OMe A,C,U, 9-carbon spacer [I-9] between parts, 5' C6NH2, 3' idT, hemolysis, loop 2 spacer tolerated, variant of Aptamer 15
[7] = 2'-F G, 2'-OMe A,C,U, 5' C6NH2, 3' idT, hemolysis, loop 3 shortened not tolerated, variant of Aptamer 15

## CCGCCUUGCCAGUAUUGGCUUAGGCUGGAAGUUUGGCGGU [Aptamer 15 C3 spacer at 18]
[1]; as Aptamer 15, 3-carbon spacer replaces nt 18, hemolysis, no loss of activity, variant of Aptamer 15
  functional effect of the aptamer: active

## CCGCCUUGCCAGUAUUGGCUUAGGCUGGAAGUUUGGCGGU [Aptamer 15 C3 spacer at 19]
[1]; as Aptamer 15, 3-carbon spacer replaces nt 19, hemolysis, no loss of activity, variant of Aptamer 15
  functional effect of the aptamer: active

## CCGCCUUGCCAGUAUUGGCUUAGGCUGGAAGUUUGGCGGU [Aptamer 15 C3 spacer at 31]
[1]; as Aptamer 15, 3-carbon spacer replaces nt 31, hemolysis, complete loss of activity, variant of Aptamer 15
  functional effect of the aptamer: not active

## CCGCCUUGAAGUAUUGGCUUAGGCUUAAGUUUGGCGG [Aptamer 20]
[1]; [4]
  functional effect of the aptamer: not active

## CCGCCUUGCCAGUAUUGGCUUAGGCUGGAAGUUUGGCGGU [Aptamer 15 C3 spacer at 21]
[1]; as Aptamer 15, 3-carbon spacer replaces nt 21, hemolysis, no loss of activity, variant of Aptamer 15
  functional effect of the aptamer: active

## GCCUUGCCAGUAUUGGCGAUGGCUGGAAGUUUGGC [Aptamer 58]
[1]; 2'-F G, 2'-OMe A,C,U, 5' C6NH2, 3' idT, hemolysis, variant of Aptamer 39
  IC50: > 0.1 µM

## CCGCCUUGCCAGUAUUGGCUUAGGCUGGAAGUUUGGCGG [S32]
[2]; 2'-OMe A,C,U, 5' C6 disulfide linker, potently inhibits Z-Lys-SBzl cleavage and C3bB convertase formation, variant of S31
  functional effect of the aptamer: active

## CCGCCUUGCCAGUAUUGGCUUAGGCUGGAAGUUUGGCGGU [Aptamer 15 C3 spacer at 33]
[1]; as Aptamer 15, 3-carbon spacer replaces U33, hemolysis, well tolerated, variant of Aptamer …
  functional effect of the aptamer: active

## CCGCCUUGCCAGUAUUGGCUUAGGCUGGAAGUUUGGCGGU [Aptamer 15 C3 spacer at 6]
[1]; as Aptamer 15, 3-carbon spacer replaces U6, hemolysis, modest to moderate reduction, variant of Aptamer 15
  functional effect of the aptamer: less active

## CCGCCUUGCCAGUAUUGGCGGCUGGAAGUUUGGCGG [Aptamer 22]
[1]; [5]
  functional effect of the aptamer: not active

## CCGCCUUGCCAGUAUUGGCUUAGGCUGGAAGUUUGGCGGU [Aptamer 15 C3 spacer at 30]
[1]; as Aptamer 15, 3-carbon spacer replaces nt 30, hemolysis, complete loss of activity, variant of Aptamer 15
  functional effect of the aptamer: not active

## CCGCCUUGCCAGUAUUGGCUUAGGCUGGAAGUGGCGG [Aptamer 28]
[1]; 2'-F G, 2'-OMe A,C,U, 6-carbon spacer [I-6] between parts, 5' C6NH2, 3' idT, hemolysis, U33,U34 to 6-carbon spacer not tolerated, variant of Aptamer 15
  functional effect of the aptamer: not active

## CCGCCUUGCCAGUAUUGGGCUGGAAGUUUGGCGG [Aptamer 24]
[1]; [6]
  functional effect of the aptamer: active

## CCGCCUUGCCAGUAUUGGGCUGGAAGUUUGGCGG [Aptamer 21]
[1]; [5]
  functional effect of the aptamer: not active

## CCGCCUUGCCAGUAUUGGCUUAGGCUGGAAGUUUGGCGGU [Aptamer 15 C3 spacer at 8]
[1]; as Aptamer 15, 3-carbon spacer replaces G8, hemolysis, large loss of inhibition, variant of Aptamer 15
  functional effect of the aptamer: less active

## CCGCCUUGCCAGUAUUGGCUUAGGCUGGAAGUUUGGCGGU [Aptamer 15 C3 spacer at 29]
[1]; as Aptamer 15, 3-carbon spacer replaces nt 29, hemolysis, complete loss of activity, variant of Aptamer 15
  functional effect of the aptamer: not active

## CCGCCUUGCCAGUAUUGGCUUAGGCUGGAAGUUGGCGG [Aptamer 27]
[1]; [7]
  functional effect of the aptamer: not active

## CCGCCUUGCCAGUAUUGGGCUGGAAGUUUGGCGG [Aptamer 23]
[1]; 2'-F G, 2'-OMe A,C,U, hexaethylene glycol spacer [I-18] between parts, 5' C6NH2, 3' idT, hemolysis, loop 2 spacer tolerated, variant of Aptamer 15
  functional effect of the aptamer: active

## GGGAGUGUGUACGAGGCAUUAGGCCGCCACCUCGUUUGAUUGCGGUUGUUCGGCCGCGGGCGGCUUUGAUACUUGAUCGCCCUAGAAGC [C3]
[3]
  binding result: no binding

## CCGCCUUGCCAGUAUUGGCUUAGGCUGGAAGUGGCGG [Aptamer 26]
[1]; [7]
  functional effect of the aptamer: not active

## CCGCCUUGCCAGUAUUGGCUUAGGCUGGAAGUUUGGCGGU [Aptamer 15 C3 spacer at 7]
[1]; as Aptamer 15, 3-carbon spacer replaces U7, hemolysis, modest to moderate reduction, variant of Aptamer 15
  functional effect of the aptamer: less active

## CCGUUGUGGGUAUUGGCUUAGGCCCAAAGUUUCGG [Aptamer 90]
[1]; 2'-F G, 2'-OMe A,C,U, 5' C6NH2, 3' idT, hemolysis, variant of Aptamer 15
  IC50: > 0.1 µM

## CCGCCUUGCCAGUAUUGGCUUAGGCUGGAAGUUUGGCGGU [Aptamer 15 C3 spacer at 20]
[1]; as Aptamer 15, 3-carbon spacer replaces nt 20, hemolysis, no loss of activity, variant of Aptamer 15
  functional effect of the aptamer: active

## CCGACUUGCCAGUAUAGGCUUAUGCUGGAAGUUUGUCGG [Aptamer 67]
[1]; 2'-F G, 2'-OMe A,C,U, 5' C6NH2, 3' idT, hemolysis
  IC50: > 0.1 µM

## CCGCCUUGCCAGUAUUGGCGGCUGGAAGUUUGGCGG [Aptamer 25]
[1]; [6]
  functional effect of the aptamer: active

## CCGCCUUGCCAGUAUUGGCUUAGGCUGGAAGUUUGGCGGU [Aptamer 15 C3 spacer at 22]
[1]; as Aptamer 15, 3-carbon spacer replaces nt 22, hemolysis, no loss of activity, variant of Aptamer 15
  functional effect of the aptamer: active

## CCGCCUUGCCAGAUUGGCUUAGCUGGAAGUUUGGCGG [Aptamer 19]
[1]; [4]
  functional effect of the aptamer: not active

## CCGCCUUGCAGUAUUGGCUUAGGCUGAAGUUUGGCGG [Aptamer 18]
[1]; 2'-F G, 2'-OMe A,C,U, 5' C6NH2, 3' idT, hemolysis at 10 and 100 nM, 4 bp stem 2 not tolerated, variant of Aptamer 15
  functional effect of the aptamer: not active

## CCGCCUUGCCAGUAUUGGCUUAGGCUGGAAGUUUGGCGG [Aptamer 15]
[2]; 2'-OMe A, C, U, 5' C6NH2, inhibits Z-Lys-SBzl esterase and C3bB convertase activity, data shown for S32 as example
  functional effect of the aptamer: active

## GGGAGUGUGUACGAGGCAUUAGUCCGCCGAAGUCUUUUGGCUCGGUUUUUUCAAGGUCGGCGGCUUUGAUACUUGAUCGCCCUAGAAGC [C2]
[3]
  binding result: no binding

## GGGAGUGUGUACGAGGCAUUAGGCCGCCACCCAAACUGCAGUCCUCGUAAGUCUGCCUGGCGGCUUUGAUACUUGAUCGCCCUAGAAGC [C1]
[3]
  binding result: no binding

## CCGCCUUGCCAGUAUUGGCUUAGGCUGGAAGUUUGGCGGU [Aptamer 15 C3 spacer at 32]
[1]; as Aptamer 15, 3-carbon spacer replaces nt 32, hemolysis, complete loss of activity, variant of Aptamer 15
  functional effect of the aptamer: not active

## AGGCCGCCUUGCCAGUAUUGGCUUAGGCUGGAAGUUUGGCGGCUU [S31]
[2]; 2'-OMe A, C, U, 5' C6 disulfide, inhibits Z-Lys-SBzl esterase and C3bB convertase activity, data shown for S32 as example
  functional effect of the aptamer: active

## CAGUCUUGCGAGUUUGGCUAAGCUUCGAAGUUUGGCUG [Aptamer 37]
[1]; 2'-F G, 2'-OMe A,C,U, 5' C6NH2, 3' idT, appeared fully inactive
  functional effect of the aptamer: not active
